Reference: PubChem BioAssay AID2685 (National Center for Advancing Translational Sciences (NCATS), 2010)
The other results are listed elsewhere or left out. These are further read-outs of the screen, such as a control signal, another cell line or another target. No call is given for them. The list favours compounds with an active or inconclusive main result. Potencies come from curve fits of mixed quality, noted in brackets.

Assay: qHTS Assay for Lipid Storage Modulators in Drosophila S3 Cells;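 on cell number change: cells counted by Cell Tracker Red CMTPX staining in the red channel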
Conditions: BODIPY lipid droplet fluorescence, 18-24 h; for cell number change: measured here: cell count max response, cells fed with added oleic acid
Procedure, shortened: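 Laser-scanning cytometry quantifies lipid droplet accumulation (500–530 nm total intensity; droplet/cell object ratio) in oleic acid-fed (400 uM added) Drosophila S3 cells treated with a concentration series. 20 uM Triacsin C defined 100% inhibition.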

[1] = measured here: cell number channel AC50, cells fed with added oleic acid
[2] = measured here: lipid fluorescence (Fed channel) AC50, cells fed with added oleic acid

SMILES | AC50 [1] | cell number change [%] | AC50 [2]
Cc1[nH]c2ccccc2c1SCC(=O)NNC(=O)Nc1ccc(OC(F)(F)F)cc1 | 6.51 µM [falling, single point] |  | 
CCCCN(C(=O)C1CC(=O)N(c2ccc3c(c2)OCCO3)C1)c1c(N)n(CC(C)C)c(=O)[nH]c1=O (centres undefined) | 20.6 µM [falling, single point] | -63.4 | 2.06 µM [falling, partial curve, poor fit]
COc1cccc(CNC(=O)c2cccc(Br)c2)c1 | 2.59 µM [falling, partial curve] |  | 0.731 µM [falling, partial curve, poor fit]
COc1cc(C(c2nnnn2C(C)(C)C)N2CCN(c3nc4ccccc4s3)CC2)ccc1O (centres undefined) |  | 0.407 | 
COc1ccc(C(=O)COC(=O)CCn2nnc(-c3cccc(O)c3OC)n2)cc1 |  | 3.3 | 
CCOC(=O)C1=C(C)Nc2ccccc2N=C1NC(=O)c1cccc(S(=O)(=O)NCc2ccccc2)c1 | 2.91 µM [rising, full curve] | 41.8 | 2.91 µM [rising, partial curve]
N#CCC(=O)N/N=C/c1ccc(OC2CSC2)cc1 |  | 22.9 | 5.17 µM [rising, full curve, poor fit]
COc1ccc(C)cc1NC(=O)COC(=O)c1ccc(OCc2ccc(Cl)cc2Cl)c(OC)c1 |  | 29.7 | 
O=[N+]([O-])CC(=Nc1ccc(F)cc1)N/N=C\c1oc(O)c2ccccc12 |  | 13.7 | 6.51 µM [rising, full curve, poor fit]
O=C(NCc1ccccn1)c1ccc2c(c1)N(Cc1ccccc1)CCS2 |  | -37.2 | 
Cc1[nH]c2ccccc2c1N=Nc1ccc(F)cc1 | 29.1 µM [falling, partial curve] | -131 | 
COc1ccc(NC(=O)c2ccc(Cl)nc2)cc1S(=O)(=O)N1CCOCC1 |  | 20.1 | 2.59 µM [falling, single point]
Cc1cc(C)n(CCNC(=O)C2CCC(=O)N(CCc3cccc(F)c3)C2)n1 (centres undefined) |  | 3.23 | 32.6 µM [falling, single point]
COc1ccc(NS(=O)(=O)c2ccc(N/N=C/c3ccc(N4CCOCC4)cc3)c([N+](=O)[O-])c2)cc1 | 3.26 µM [falling, full curve] | -33.3 | 5.8 µM [falling, full curve]
CN1CCN(C(=S)NC(=O)c2ccc(C(C)(C)C)cc2)CC1 |  | -1.49 | 6.51 µM [falling, single point]
Cc1cc(OCCCC(=O)NC2=NCCS2)ccc1Cl |  | 18.2 | 29.1 µM [rising, single point]
O=C(COc1ccc(-n2cnnn2)cc1)Nc1ccc(F)c(F)c1F | 29.1 µM [falling, single point] | -45.1 | 0.461 µM [rising, full curve, poor fit]
Cc1nnc(SCCn2c(N3CC(C)CC(C)C3)nc3c2c(=O)[nH]c(=O)n3C)s1 (centres undefined) |  | 3.17 | 1.84 µM [rising, partial curve, poor fit]
COc1ccc(NC(=O)CSc2nc3c(cc2C#N)CN(C)CC3)cc1 | 1.03 µM [rising, full curve, poor fit] | 16.7 | 
O=C(COc1ccccc1Cl)Nc1cccc(S(=O)(=O)N2CCCC2)c1 | 29.1 µM [falling, single point] | -32.5 | 0.92 µM [rising, full curve, poor fit]

Single entries from the entries so far:
Value of COc1ccc(NC(=O)CSc2nc3c(cc2C#N)CN(C)CC3)cc1 under AC50 [1]: 1.03 µM [rising, full curve, poor fit]
Value of COc1ccc(NC(=O)c2ccc(Cl)nc2)cc1S(=O)(=O)N1CCOCC1 under cell number change [%]: 20.1

Remaining list, next part.

SMILES | AC50 [1] | cell number change [%] | AC50 [2]
O=C(c1cccc(NC2=NC3CS(=O)(=O)CC3S2)c1)N1CCN(c2ncccn2)CC1 (centres undefined) |  | -8.93 | 0.0651 µM [falling, full curve, poor fit]
CCOC(=O)C1Cn2c(nc3c(c2=O)C(C)(CC)Cc2ccccc2-3)S1 (centres undefined) |  | -20.8 | 2.06 µM [rising, partial curve]
COCCNC(=O)c1ccc(S(=O)(=O)N2CCCc3ccccc32)cc1 |  | 8.7 | 29.1 µM [rising, single point]
CC(=O)Nc1ccc(S(=O)(=O)Nc2nnc(C(C)C)s2)cc1 |  | -8.06 | 18.4 µM [falling, partial curve]
Cc1nc(N2CCN(c3ccccn3)CC2)c2c(C)c(C(=O)Nc3ccc(Cl)cc3)sc2n1 | 29.1 µM [rising, single point] | 54.1 | 8.2 µM [falling, single point]
CC(=O)N1CCc2cc(S(=O)(=O)NC(C)c3ccccc3)ccc21 (centres undefined) | 1.46 µM [falling, full curve] | -21.3 | 
CC(C)n1nnc(-c2ccc(OCc3ccccc3F)cc2)n1 | 0.461 µM [rising, full curve, poor fit] | 16.4 | 
Cc1cc(N2CCN(c3ccccc3)CC2)nc(-n2nc(C)cc2C)n1 |  | -14.4 | 7.31 µM [falling, single point]
O=C(NC1CCCc2ccccc21)C1CCCN(S(=O)(=O)c2cnc[nH]2)C1 (centres undefined) |  | -16.6 | 0.00731 µM [rising, full curve, poor fit]
Cc1ccc(CCC(=O)Nc2ccc(Br)cc2)o1 |  | -26.9 | 
c1ccc(NC2=NCCN2CC2CCC2)cc1 |  | -18.5 | 0.411 µM [falling, single point]
C/C(=N\NC(=O)CNC(=O)c1ccccc1Br)c1ccco1 |  | -1.59 | 0.58 µM [falling, single point]
O=S(=O)(c1cccc(F)c1)N1CCN(C(=S)NCC2CCCO2)CC1 (centres undefined) |  | 10.4 | 11.2 µM [rising, partial curve]
CCOc1ccc(N2C(=O)c3ccccc3C2=O)cc1 |  | 7.37 | 
COCCn1c(=O)[nH]c2cc(C(=O)N3CCN(c4ccc(Cl)cc4)CC3)ccc2c1=O |  | -1.8 | 0.651 µM [falling, partial curve, poor fit]
NNC(=O)Cn1nc(-c2ccccc2)c2ccccc2c1=O |  | 13.5 | 0.231 µM [rising, full curve, poor fit]
Nc1cc(C(=O)O)ccc1N1CCCCCC1 |  | -13.6 | 2.06 µM [falling, full curve, poor fit]
C=CCOc1ccccc1C1NC(=O)NC(C)=C1C(=O)NCc1ccccc1 (centres undefined) | 11.6 µM [rising, partial curve] | 73.7 | 2.31 µM [rising, partial curve]
CC(C)CCNC(=O)C1CCN(c2nnc(-n3cccc3)s2)CC1 |  | 21.7 | 29.1 µM [rising, single point]
CCCC(=O)Nc1sc2c(c1C#N)CCCC2 | 5.8 µM [rising, single point] |  | 6.51 µM [rising, single point]

SMILES | AC50 [1] | cell number change [%] | AC50 [2]
O=C(CS(=O)(=O)Cc1ccccc1)N1CCN(Cc2ccc3c(c2)OCO3)CC1 |  | -9.2 | 2.31 µM [rising, partial curve, poor fit]
O=C(NNC(=O)C1C2C=CC(C2)C1C(=O)O)c1cc(Cl)ccc1O (centres undefined) | 0.13 µM [falling, full curve, poor fit] | -3.97 | 
COc1ccc(C(=O)N/N=C(\N)c2cc3ccccc3oc2=O)cc1 | 2.91 µM [rising, single point] |  | 
Cc1ccc(Cn2ccc(NC(=O)C3C4CCC(C4)C3C(=O)O)n2)cc1 (centres undefined) | 29.1 µM [rising, single point] | 43.8 | 0.00517 µM [falling, full curve, poor fit]
COc1ccc(C)cc1N(CC(=O)NCCSCc1cccc(Cl)c1)S(C)(=O)=O |  | -7.3 | 0.0058 µM [falling, full curve, poor fit]
O=C(CSC(=S)N1CCSCC1)c1ccccc1 |  | 76.7 | 
CCCC(=O)Nc1ccc(C(=O)n2nnc3ccccc32)cc1 | 23.1 µM [falling, partial curve] | -135 | 29.1 µM [falling, single point]
CCc1nc2nc(C)c(NS(=O)(=O)c3ccc(Cl)s3)c(=O)n2[nH]1 |  | -9.52 | 
O=C(COC(=O)c1cc([N+](=O)[O-])ccc1NCCO)c1ccccc1 |  | 11.2 | 11.6 µM [rising, partial curve, poor fit]
CC(=O)c1ccc(NC(=O)c2cccs2)cc1 | 0.731 µM [falling, full curve] | -20.2 | 
O=C(COc1cc(Cl)ccc1Cl)Nc1nnc(C2CC2)s1 | 14.6 µM [rising, partial curve, poor fit] | 31.7 | 8.2 µM [rising, partial curve, poor fit]
COC(=O)c1c(C)oc(C)c1S(=O)(=O)NCc1ccc(Cl)cc1Cl |  |  | 5.8 µM [rising, single point]
COc1ccc(C(=O)O)cc1NC(=S)NC(=O)/C=C/c1ccc(C(C)C)cc1 |  | -28.7 | 23.1 µM [falling, partial curve]
COc1ccc(OC)c(NC(=O)C2CCN(S(=O)(=O)c3cccs3)CC2)c1 | 16.4 µM [falling, partial curve] | -120 | 8.2 µM [falling, partial curve]
COc1cc(/C=C/C(=O)c2ccc(C)c([N+](=O)[O-])c2)cc(OC)c1O | 16.4 µM [falling, partial curve] | -31.2 | 20.6 µM [falling, partial curve]
CC/C(C)=N/NC(=S)NCc1ccco1 |  |  | 0.651 µM [rising, single point]
CCC/C(O)=C1\C(=O)CC(C)(C)CC1=Nc1ccc(OC)cc1OC |  | -3.62 | 
COc1ccc(CNC(=O)CC23CC4CC(CC(C4)C2)C3)cc1OC |  | -11.1 | 
